The assay can be described thus: qHTS Assay for Modulators of Lamin A Splicing. As to conditions: HeLa LMNA splicing GFP/RFP minigene ratio, 48 h. The essentials: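 S3 HeLa cells stably expressing lamin A-EGFP splicing minigene plus DsRed2, 600 cells/well, 48 h compound exposure at 37C. Laser-scanning cytometry; analysed as GFP (500-530 nm)/RFP (575-640 nm) total intensity ratio; 0.5% DMSO vehicle.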
For orientation: In qHTS, concentration-response curves come from the screen itself.

Where [1] appears, read: measured here: RFP viability control channel.
[2] abbreviates: measured here: GFP splicing reporter channel.

The other results are listed elsewhere or left out. These are further read-outs of the screen, such as a control signal, another cell line or another target. No call is given for them. Most of these compounds were active or inconclusive in the main read-out, so they are no random draw. Words in brackets tell the shape of the fitted curve; partial curves, single points and poor fits give uncertain potencies.

As for `CC(/C=C/c1ccccc1)=N\NC(=O)C1CC1(C)c1ccccc1` (stereo not given), the AC50 under setting [1] was 11.2 µM [rising, single point].
Turning to `COC(=O)C1=C(C)NC(C)=C([N+](=O)[O-])C1c1ccccc1C(F)(F)F` (stereo not given), under setting [1], the AC50 was 0.00447 µM [falling, full curve, poor fit].
In the case of `O=c1oc2ccccc2cc1-c1ccc(O)cc1O`, the AC50 is 15.8 µM [rising, partial curve, poor fit] under setting [2] and 12.6 µM [rising, partial curve, poor fit] under setting [1].
Regarding `CC(=O)N1CCN(CC(=O)Nc2ccccc2Sc2ccccc2)CC1`, the AC50 is, setting by setting: under setting [2], 12.6 µM [rising, partial curve]; under setting [1], 17.8 µM [rising, partial curve].
For the compound `O=C(c1ccco1)N1CCN(c2nc(C(F)(F)F)nc3c2nnn3Cc2ccccc2)CC1`, the AC50 reads like this: under setting [2], 35.5 µM [rising, single point]; under setting [1], 35.5 µM [rising, single point].
Turning to `C/C(=N\OCC(=O)NC12CC3CC(CC(C3)C1)C2)c1cc2ccccc2o1`, the half-maximal activity concentration (AC50) runs as follows: under setting [2], 10 µM [rising, partial curve, poor fit]; under setting [1], 11.2 µM [rising, partial curve].
Consider `CCCC/C(O)=C1\C(=O)CC(C)(C)CC1=Nc1ccc(OC)cc1`, for which the AC50 under setting [2] was 11.2 µM [rising, single point] and the AC50 under setting [1] is 15.8 µM [rising, single point].
As for `COC(=O)c1ccc(COc2ccc(-c3nn[nH]n3)cc2)cc1`, under setting [1], the AC50 was 0.282 µM [falling, full curve].
For `CN(C)c1ccc(NC(=O)CSc2nc3ccccc3c(=O)n2C2CCCCC2)cc1`, the AC50 reads like this: under setting [2], 4.47 µM [rising, full curve, poor fit]; under setting [1], 12.6 µM [rising, partial curve].
As to `CC(Oc1ccccc1)C(=O)OCc1cc(=O)n2nc(C(C)C)sc2n1` (stereo not given), the AC50 was 6.31 µM [falling, partial curve, poor fit] under setting [2] and 0.00316 µM [falling, full curve, poor fit] under setting [1].
As to `CCCSc1ccc(C(=O)Nc2ccc(Cl)cc2)cn1`, the half-maximal activity concentration (AC50) under setting [2] was 2.24 µM [falling, partial curve, poor fit].
Turning to `Cc1ccc(-c2noc(CNCCCN(C)C)n2)cc1`, the concentration at half-maximal activity (AC50) under setting [1] is 0.0112 µM [falling, full curve, poor fit].
With `CC(=O)c1ccc(Sc2ccc(C(C)=O)cc2)cc1`, the half-maximal activity concentration (AC50) under setting [1] was 28.2 µM [rising, single point].
On to `COc1ccc(Cl)cc1NC(=O)C1CCN(S(=O)(=O)c2ccc3c(c2)CCCN3C(=O)C2CCC2)CC1`, for which, under setting [2], the AC50 was 6.31 µM [falling, full curve, poor fit].
As to `O=C(NCCCN1CCOCC1)c1ccc(Br)cc1Br`, the AC50 was 2.82 µM [falling, single point] under setting [2] and 0.501 µM [falling, single point] under setting [1].
Turning to `COc1ccccc1NC(=O)Cn1cc(C(=O)c2ccncc2)c(=O)c2cc(C)ccc21`, the AC50 under setting [1] is 0.00316 µM [falling, full curve, poor fit].
Still for that read-out and setting: the same measure for `CCn1c(N2CCN(CC(=O)c3ccc(OC)cc3)CC2)nc2ccccc21`: 8.91 µM [rising, partial curve]; for `O=C(CCC(=O)N1CCN(S(=O)(=O)c2ccc(Cl)cc2)CC1)Nc1cccc(Br)c1`: 11.2 µM [rising, partial curve, poor fit]; for `COc1cccc(-c2cc(C(=O)Nc3c(C)nn(Cc4ccccc4)c3C)no2)c1`: 35.5 µM [rising, single point].
Same read-out and setting: for `CCOC(=O)N1CCN(C(=O)CSc2nnc(COc3ccc(Cl)cc3)o2)CC1` the value was 11.2 µM [rising, single point].
In the case of `Cc1ccc(NC(=O)COc2ccc(Br)cc2CO)cc1`, under setting [1], the half-maximal activity concentration (AC50) was 28.2 µM [rising, single point].
The same measure, in the same setting: for `Cc1ccc2nc(SCC(=O)Nc3cc(C(C)(C)C)nn3-c3ccccc3)[nH]c2c1` the value was 20 µM [rising, single point].
In the case of `CCCc1nn(C)c(C(=O)Nc2ccc(Cl)cc2)c1Cl`, under setting [1], the AC50 is 22.4 µM [rising, partial curve, poor fit].
Take `Cn1cccc1/C=C1\CCC/C(=C\c2cccn2C)C1=O`: the concentration at half-maximal activity (AC50) under setting [2] was 12.6 µM [rising, partial curve, poor fit].
Regarding `Cc1ccc(C(=O)OCc2ccc3c(c2)OCO3)cc1S(=O)(=O)N1CCCCC1`, the AC50 under setting [1] is 14.1 µM [rising, partial curve].
For the compound `Cc1nnc(SCC(=O)N2c3ccccc3C(C)(c3ccccc3)CC2(C)C)s1` (stereo not given), under setting [1], the AC50 is 11.2 µM [rising, partial curve].
`CCCOc1ccc(C2=NNC(=O)CC2)cc1`: under setting [2], the AC50 was 1.58 µM [falling, partial curve, poor fit].
Still for that read-out and setting: for `CCOc1ccccc1Oc1coc2cc(OCC(=O)O)ccc2c1=O` the value was 0.0631 µM [falling, full curve, poor fit].
For `CSc1nc(N)n2nc(-c3ccccc3)cc2n1`, the AC50 under setting [1] is 0.224 µM [falling, full curve, poor fit].
In the case of `COc1ccccc1CNC(=O)C(=O)NCC(c1ccco1)N1CCOCC1` (stereo not given), the AC50 under setting [2] is 0.0355 µM [falling, full curve, poor fit].
The same measure, in the same setting: for `Cc1ccc(C)n1-c1cccc(S(=O)(=O)N2CCOCC2)c1` the value was 31.6 µM [rising, single point].
For the compound `Cc1ccc(NC(=O)CN2C(=O)CC(c3ccc(F)cc3)=Nc3ccccc32)cc1F`, the half-maximal activity concentration (AC50) under setting [1] was 35.5 µM [falling, partial curve, poor fit].
`CCn1cc(CN2N=C(C)CC2c2ccccc2)c(C)n1` (stereo not given): the AC50 was 0.0355 µM [falling, full curve, poor fit] under setting [2] and 0.0355 µM [falling, full curve, poor fit] under setting [1].
`COc1cccc(/C=N/NC(=O)C[n+]2ccccc2)c1O`: the AC50 under setting [2] was 35.5 µM [rising, single point].
Take `Cn1c(N)c(C(=O)COC(=O)c2cc(C(F)(F)F)nc3ccccc23)c(=O)n(Cc2ccccc2)c1=O`: under setting [1], the AC50 is 22.4 µM [rising, partial curve].
Still for that read-out and setting: for `O=C(COC(=O)Cc1ccccc1F)Nc1ccc2c(c1)OCO2` the value was 11.2 µM [falling, partial curve, poor fit].
Turning to `COc1ccc(NS(=O)(=O)c2ccc(NC(=S)NC(=O)CC(C)C)cc2)cc1`, the AC50 under setting [2] is 12.6 µM [falling, single point].
As for `C=CCNC(=S)NNC(=O)c1ccc(OCC(C)C)cc1`, the concentration at half-maximal activity (AC50) under setting [1] is 35.5 µM [rising, single point].
The same measure, in the same setting: for `COc1ccc(OCC(O)Cn2c(Br)nc3c2c(=O)[nH]c(=O)n3C)cc1` (stereo not given) the value was 35.5 µM [rising, single point].
On the same count and under the same terms, for `O=C(c1ccccc1Cl)N1CCc2ccccc2C1` the value was 35.5 µM [rising, single point]; for `O=C(CSCc1ccccc1Cl)NCc1ccc(Cl)c(Cl)c1`, 7.08 µM [rising, partial curve, poor fit].
For `CCOC(=O)C(C)Oc1ccc(OCc2ccccc2)cc1` (stereo not given), the AC50 is 0.447 µM [falling, partial curve] under setting [2] and 0.02 µM [falling, full curve, poor fit] under setting [1].
Consider `COC1OC(CO)C(OC2OC(C(=O)O)C(OC3OC(COS(=O)(=O)O)C(OC4OC(C(=O)O)C(OC5OC(CO)C(OC6OC(C(=O)O)C(OC7OC(COS(=O)(=O)O)C(OC8OC(C(=O)O)=C[C@H](O)C8OS(=O)(=O)O)C(O)C7NC(C)=O)[C@@H](O)C6O)C(O)C5NC(C)=O)[C@@H](O)C4O)C(O)C3NC(C)=O)[C@@H](O)C2O)C(O)C1NC(C)=O` (stereo not given in full), for which the AC50 under setting [2] is 3.55 µM [rising, single point].
As to `Cc1ccc(N(CC(=O)N/N=C/c2cccnc2)S(=O)(=O)c2ccccc2)cc1`, under setting [1], the AC50 is 0.1 µM [rising, full curve, poor fit].
The same measure, in the same setting: the same measure for `CCOC(=O)c1cc(CC)sc1NC(=O)COC(=O)c1cc[n+]([O-])cc1`: 0.0794 µM [rising, full curve, poor fit].
Still for that read-out and setting: for `Cc1[nH]c2ccccc2c1C(=O)C(=O)N1CCCc2ccccc21` the value was 0.0398 µM [rising, full curve, poor fit].
The same measure, in the same setting: for `Cc1[nH]c2ccccc2c1/C=N/NC(=O)CNC(=O)c1ccc2c(c1)OCO2` the value was 17.8 µM [rising, partial curve, poor fit].
Consider `Cc1cc(C)c2c(N)c(S(=O)(=O)c3ccccc3)sc2n1`, for which the AC50 is, setting by setting: under setting [2], 15.8 µM [rising, partial curve, poor fit]; under setting [1], 12.6 µM [rising, partial curve].
For `COc1ccc(S(=O)(=O)NCc2csc(C)n2)cc1`, the AC50 under setting [1] is 7.08 µM [rising, single point].
Same read-out and setting: for `O=C(CSCc1nc2ccccc2[nH]1)Nc1ccc(Oc2ccccc2)cc1` the value was 17.8 µM [rising, single point]; for `c1ccc(-c2cc(CSc3nc4ccccc4[nH]3)on2)cc1`, 10 µM [rising, partial curve].
As to `COc1ccc(C2NC(=O)NC(C)=C2C(=O)OCc2ccc3c(c2)OCO3)cc1OC` (stereo not given), the AC50 under setting [1] was 17.8 µM [falling, single point].
Same read-out and setting: for `Oc1c(C(c2ccccc2Cl)N2CCOCC2)sc2nc(-c3ccco3)nn12` (stereo not given) the value was 3.55 µM [rising, single point].
For `Cc1ccc(C(=O)N2CCN(c3ccc(F)cc3)CC2)cc1NC(=O)c1nsc2ccccc12`, the half-maximal activity concentration (AC50) was 0.708 µM [rising, full curve] under setting [2] and 2.82 µM [rising, partial curve] under setting [1].
Take `Nn1c(Cc2cccc3ccccc23)nnc1SCc1ccc(Cl)c(Cl)c1`: the half-maximal activity concentration (AC50) under setting [1] was 14.1 µM [rising, single point].
The same measure, in the same setting: for `O=C(Nc1ccc([N+](=O)[O-])cc1)Nc1nc(-c2ccc(Cl)s2)cs1` the value was 3.16 µM [rising, full curve].
With `O=C(CNC(=O)C1COc2ccccc2O1)N/N=C/c1ccc(O)cc1O` (stereo not given), the concentration at half-maximal activity (AC50) was 15.8 µM [rising, single point] under setting [2] and 35.5 µM [rising, single point] under setting [1].

Usually AC50 stands for the concentration giving half of the maximal activity seen.

The values are drawn from PubChem BioAssay AID1487 (National Center for Advancing Translational Sciences (NCATS), 2009).
